From the supplement of paper PMC8728848
Some of the results follow.

What was measured:
Test in all cases: glycan array binding signal (z-score within array); higher = stronger binding
Conditions in all cases: glycan notation: IUPAC condensed, linker removed
[1] = target: Fuc(a1-2)Gal(b1-4)GlcNAc(b1-3)Gal(b1-4)GlcNAc(b1-2)Man(a1-3)[Fuc(a1-2)Gal(b1-4)GlcNAc(b1-3)Gal(b1-4)GlcNAc(b1-2)Man(a1-6)]Man(b1-4)GlcNAc(b1-4)GlcNAc
Method in brief: (§1)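 The Consortium for Functional Glycomics database supplied 3228 glycan arrays, of which those lacking an available protein sequence were dropped. The binding signal, a within-array Z-score, was averaged across arrays of the same protein sequence and across linkers. Negative scores can be read as non-binding.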

[2] = target: Fuc(a1-2)Gal(b1-4)GlcNAc(b1-3)Gal(b1-4)GlcNAc(b1-3)Gal(b1-4)GlcNAc
Method in brief: as §1

[3] = target: Fuc(a1-2)Gal(b1-4)GlcNAc(b1-3)GalNAc
Method in brief: as §1

[4] = target: Fuc(a1-2)Gal(b1-4)GlcNAc(b1-3)[Fuc(a1-2)Gal(b1-4)GlcNAc(b1-6)]GalNAc
Method in brief: as §1

[5] = target: Fuc(a1-2)Gal(b1-4)GlcNAc(b1-3)[Fuc(a1-3)[Gal(b1-4)]GlcNAc(b1-6)]Gal(b1-4)Glc
Method in brief: as §1

[6] = target: Fuc(a1-2)Gal(b1-4)GlcNAc(b1-6)GalNAc
Method in brief: as §1

[7] = target: Fuc(a1-2)Gal(b1-4)GlcNAc6S
Method in brief: as §1

[8] = target: Fuc(a1-2)Gal(b1-4)[Fuc(a1-3)]GlcNAc
Method in brief: as §1

[9] = target: Fuc(a1-2)Gal(b1-4)[Fuc(a1-3)]GlcNAc(b1-2)Man(a1-3)[Fuc(a1-2)Gal(b1-4)[Fuc(a1-3)]GlcNAc(b1-2)Man(a1-6)]Man(b1-4)GlcNAc(b1-4)[Fuc(a1-6)]GlcNAc
Method in brief: as §1

[10] = target: Fuc(a1-2)Gal(b1-4)[Fuc(a1-3)]GlcNAc(b1-2)[Fuc(a1-2)Gal(b1-4)[Fuc(a1-3)]GlcNAc(b1-4)]Man(a1-3)[Fuc(a1-2)Gal(b1-4)[Fuc(a1-3)]GlcNAc(b1-2)Man(a1-6)]Man(b1-4)GlcNAc(b1-4)GlcNAc
Method in brief: as §1

[11] = target: Fuc(a1-2)Gal(b1-4)[Fuc(a1-3)]GlcNAc(b1-3)Gal(b1-4)[Fuc(a1-3)]GlcNAc
Method in brief: as §1

[12] = target: Fuc(a1-2)Gal(b1-4)[Fuc(a1-3)]GlcNAc(b1-3)Gal(b1-4)[Fuc(a1-3)]GlcNAc(b1-3)Gal(b1-4)[Fuc(a1-3)]GlcNAc
Method in brief: as §1

[13] = target: Fuc(a1-2)Gal(b1-4)[Fuc(a1-3)]GlcNAc(b1-3)GalNAc
Method in brief: as §1

[14] = target: Fuc(a1-2)Gal(b1-4)[Fuc(a1-3)]GlcNAc(b1-3)[Neu5Ac(a2-6)Gal(b1-4)GlcNAc(b1-6)]Gal(b1-4)Glc
Method in brief: as §1

[15] = target: Fuc(a1-2)Gal3S(b1-4)GlcNAc
Method in brief: as §1

[16] = target: Fuc(a1-2)Gal6S(b1-3)GlcNAc
Method in brief: as §1

[17] = target: Fuc(a1-2)Gal6S(b1-3)GlcNAc6S
Method in brief: as §1

Fuc(a1-2)Gal6S(b1-4)Glc = target: Fuc(a1-2)Gal6S(b1-4)Glc
Method in brief: as §1

[18] = target: Fuc(a1-2)Gal6S(b1-4)Glc6S
Method in brief: as §1

Fuc(a1-2)[Gal(a1-3)]Gal = target: Fuc(a1-2)[Gal(a1-3)]Gal
Method in brief: as §1

[19] = target: Fuc(a1-2)[Gal(a1-3)]Gal(b1-3)GalNAc
Method in brief: as §1

[20] = target: Fuc(a1-2)[Gal(a1-3)]Gal(b1-3)GalNAc(b1-3)Gal(a1-4)Gal(b1-4)Glc
Method in brief: as §1

[21] = target: Fuc(a1-2)[Gal(a1-3)]Gal(b1-3)GlcNAc
Method in brief: as §1

[22] = target: Fuc(a1-2)[Gal(a1-3)]Gal(b1-3)GlcNAc(b1-2)Man(a1-3)[Fuc(a1-2)[Gal(a1-3)]Gal(b1-3)GlcNAc(b1-2)Man(a1-6)]Man(b1-4)GlcNAc(b1-4)GlcNAc
Method in brief: as §1

[23] = target: Fuc(a1-2)[Gal(a1-3)]Gal(b1-3)GlcNAc(b1-2)Man(a1-3)[Fuc(a1-2)[Gal(a1-3)]Gal(b1-3)GlcNAc(b1-2)Man(a1-6)]Man(b1-4)GlcNAc(b1-4)[Fuc(a1-6)]GlcNAc
Method in brief: as §1

[24] = target: Fuc(a1-2)[Gal(a1-3)]Gal(b1-3)GlcNAc(b1-3)GalNAc
Method in brief: as §1

[25] = target: Fuc(a1-2)[Gal(a1-3)]Gal(b1-3)GlcNAc(b1-6)GalNAc
Method in brief: as §1

[26] = target: Fuc(a1-2)[Gal(a1-3)]Gal(b1-4)Glc
Method in brief: as §1

[27] = target: Fuc(a1-2)[Gal(a1-3)]Gal(b1-4)GlcNAc
Method in brief: as §1

[28] = target: Fuc(a1-2)[Gal(a1-3)]Gal(b1-4)GlcNAc(b1-2)Man
Method in brief: as §1

[29] = target: Fuc(a1-2)[Gal(a1-3)]Gal(b1-4)GlcNAc(b1-2)Man(a1-3)[Fuc(a1-2)[Gal(a1-3)]Gal(b1-4)GlcNAc(b1-2)Man(a1-6)]Man(b1-4)GlcNAc(b1-4)GlcNAc
Method in brief: as §1

[30] = target: Fuc(a1-2)[Gal(a1-3)]Gal(b1-4)GlcNAc(b1-2)Man(a1-3)[Fuc(a1-2)[Gal(a1-3)]Gal(b1-4)GlcNAc(b1-2)Man(a1-6)]Man(b1-4)GlcNAc(b1-4)[Fuc(a1-6)]GlcNAc
Method in brief: as §1

[31] = target: Fuc(a1-2)[Gal(a1-3)]Gal(b1-4)GlcNAc(b1-3)GalNAc
Method in brief: as §1

[32] = target: Fuc(a1-2)[Gal(a1-3)]Gal(b1-4)GlcNAc(b1-6)GalNAc
Method in brief: as §1

[33] = target: Fuc(a1-2)[Gal(a1-3)]Gal(b1-4)[Fuc(a1-3)]Glc
Method in brief: as §1

[34] = target: Fuc(a1-2)[Gal(a1-3)]Gal(b1-4)[Fuc(a1-3)]GlcNAc
Method in brief: as §1

[35] = target: Fuc(a1-2)[Gal(a1-3)]Gal(b1-4)[Fuc(a1-3)]GlcNAc(b1-3)GalNAc
Method in brief: as §1

[36] = target: Fuc(a1-2)[Gal(a1-4)]Gal(b1-4)GlcNAc
Method in brief: as §1

[37] = target: Fuc(a1-2)[GalNAc(a1-3)]Gal
Method in brief: as §1

[38] = target: Fuc(a1-2)[GalNAc(a1-3)]Gal(b1-3)GalNAc(a1-3)[Fuc(a1-2)]Gal(b1-4)GlcNAc
Method in brief: as §1

[39] = target: Fuc(a1-2)[GalNAc(a1-3)]Gal(b1-3)GalNAc(b1-3)Gal(a1-4)Gal(b1-4)Glc
Method in brief: as §1

[40] = target: Fuc(a1-2)[GalNAc(a1-3)]Gal(b1-3)GlcNAc
Method in brief: as §1

[41] = target: Fuc(a1-2)[GalNAc(a1-3)]Gal(b1-3)GlcNAc(b1-2)Man(a1-3)[Fuc(a1-2)[GalNAc(a1-3)]Gal(b1-3)GlcNAc(b1-2)Man(a1-6)]Man(b1-4)GlcNAc(b1-4)GlcNAc
Method in brief: as §1

[42] = target: Fuc(a1-2)[GalNAc(a1-3)]Gal(b1-3)GlcNAc(b1-2)Man(a1-3)[Fuc(a1-2)[GalNAc(a1-3)]Gal(b1-3)GlcNAc(b1-2)Man(a1-6)]Man(b1-4)GlcNAc(b1-4)[Fuc(a1-6)]GlcNAc
Method in brief: as §1

[43] = target: Fuc(a1-2)[GalNAc(a1-3)]Gal(b1-3)GlcNAc(b1-3)GalNAc
Method in brief: as §1

B1: SfaEH (Escherichia coli), Q1RDG5 (protein)
chain: LLCRNNQTGQVFNSGDTSFRVNVSPVVQYDKSISVLDLSQLVSCQNEDSTGQNYDYLKILKGSGFSPALDTKTYGRLDFTSRPTGYARQLPLQFDLQVTEAFYQYGVWKPFPAKLYLYPAPGVFGKVINNGDLLATLYVNKFSTKGQEAGERNFTWRFYATNDVYIQTGTCRVSSNNVKVDLPSYPGGPVTVPLTVRCDQTQSVSYTLSGPVTGSGNTVFANTAASGSGGVGIQLSDNVGPVPAGQPRSLGQVGSSPVSLGLKASYALTGQASPTPGAVQSVINVTFSYN
[1]
  glycan array binding signal (z-score): 0.326
[2]
  glycan array binding signal (z-score): -0.132
[3]
  glycan array binding signal (z-score): -0.983
[4]
  glycan array binding signal (z-score): -0.363
[5]
  glycan array binding signal (z-score): -0.708
[6]
  glycan array binding signal (z-score): 0.53
[7]
  glycan array binding signal (z-score): -0.418
[8]
  glycan array binding signal (z-score): 0.078
[9]
  glycan array binding signal (z-score): 0.614
[10]
  glycan array binding signal (z-score): -0.498
[11]
  glycan array binding signal (z-score): -0.11
[12]
  glycan array binding signal (z-score): 1.77
[13]
  glycan array binding signal (z-score): 0.063
[14]
  glycan array binding signal (z-score): -0.301
[15]
  glycan array binding signal (z-score): -0.695
[16]
  glycan array binding signal (z-score): -1.04
[17]
  glycan array binding signal (z-score): -0.731
Fuc(a1-2)Gal6S(b1-4)Glc
  glycan array binding signal (z-score): -0.887
[18]
  glycan array binding signal (z-score): 0.747
Fuc(a1-2)[Gal(a1-3)]Gal
  glycan array binding signal (z-score): 0.472
[19]
  glycan array binding signal (z-score): -0.075
[20]
  glycan array binding signal (z-score): -1.07
[21]
  glycan array binding signal (z-score): 0.11
[22]
  glycan array binding signal (z-score): -0.134
[23]
  glycan array binding signal (z-score): -0.025
[24]
  glycan array binding signal (z-score): 0.137
[25]
  glycan array binding signal (z-score): 0.279
[26]
  glycan array binding signal (z-score): 0.531
[27]
  glycan array binding signal (z-score): 0.616
[28]
  glycan array binding signal (z-score): -0.41
[29]
  glycan array binding signal (z-score): -0.531
[30]
  glycan array binding signal (z-score): -0.355
[31]
  glycan array binding signal (z-score): -0.416
[32]
  glycan array binding signal (z-score): 0.217
[33]
  glycan array binding signal (z-score): -0.344
[34]
  glycan array binding signal (z-score): 0.283
[35]
  glycan array binding signal (z-score): 0.707
[36]
  glycan array binding signal (z-score): 0.037
[37]
  glycan array binding signal (z-score): 0.063
[38]
  glycan array binding signal (z-score): -1.39
[39]
  glycan array binding signal (z-score): -0.835
[40]
  glycan array binding signal (z-score): -0.966
[41]
  glycan array binding signal (z-score): -0.917
[42]
  glycan array binding signal (z-score): -0.875
[43]
  glycan array binding signal (z-score): -0.891
